# Values from PubChem BioAssay AID1259254 (NCATS, 2017)
# Aim: 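Finding genes that stop cells copying their DNA twice in one cycle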 (primary screen)
# System: human HCT116 colorectal cancer cells
# Reagents: single siRNA against human genes
# Timing: 3 days
# Measured: 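Nuclei stained with Hoechst and imaged; cell-cycle phase assigned by DNA content; G2 share scaled per plate, non-targeting siRNA 0%, GMNN siRNA 100%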
# Reading the numbers: G2 robust z-score and G2 cells, % of GMNN control: higher = more G2 cells, more excess DNA replication; raw share of cells in G2: higher = larger share of cells with G2 DNA content
# Active means: 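An siRNA counts as active if its G2 robust z-score lies at least 5 MADs above the screen median; here such calls match roughly 38% of GMNN control or more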
# Shown is an unselected part of about 59,000 reagents. About 1,550 of all reagents (2.6%) count as active. 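G2 share is only a proxy for re-replication; each gene was hit by three separate siRNAs, and active genes were retested.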 Raw values vary from plate to plate and are shown uncorrected. Reagents against one gene are numbered here. Reagent sequences are not shown. Not given: the amount of reagent.
gene knocked down,siRNA no.,G2 robust z-score,"G2 cells, % of GMNN control",raw share of cells in G2 (%),Call
UBR5,1,-0.405,0.116,4.29,inactive
UBR5,2,-0.636,-1.51,5.27,inactive
UBR5,3,-1.32,-6.29,1.39,inactive
QSOX1,1,0.154,4.05,5.49,inactive
QSOX1,2,0.298,5.06,6.72,inactive
QSOX1,3,0.313,5.17,6.65,inactive
GSR,1,-0.177,1.72,5.86,inactive
GSR,2,0.57,6.98,7.92,inactive
GSR,3,0.336,5.33,5.56,inactive
EPPK1,1,3.29,26.1,13.6,inactive
EPPK1,2,0.24,4.66,6.51,inactive
EPPK1,3,5.58,42.2,23,active
NOLC1,1,0.936,9.55,9.65,inactive
NOLC1,2,0.194,4.33,5.75,inactive
NOLC1,3,-0.127,2.07,4.16,inactive
AJM1,1,2.54,20.8,10.9,inactive
AJM1,2,-0.661,-1.68,2.67,inactive
AJM1,3,2.87,23.2,14.6,inactive
KCTD5,1,-0.452,-0.21,5.21,inactive
KCTD5,2,2.03,17.2,10.6,inactive
KCTD5,3,-0.266,1.1,4.8,inactive
FNBP1,1,0.533,6.72,9.07,inactive
FNBP1,2,0.164,4.12,5.53,inactive
FNBP1,3,-0.678,-1.81,3.25,inactive
TAF10,1,1.14,11,7.82,inactive
TAF10,2,-0.575,-1.08,4.34,inactive
TAF10,3,0.206,4.42,4.71,inactive
HSFX1,1,0.546,6.81,9.04,inactive
HSFX1,2,1.84,15.9,10.1,inactive
HSFX1,3,1.08,10.6,7.86,inactive
CLUH,1,3.13,25,13.8,inactive
CLUH,2,0.381,5.65,6.39,inactive
CLUH,3,1.79,15.6,8.75,inactive
DEFB4A,1,-0.951,-3.73,3.55,inactive
DEFB4A,2,6.52,48.8,22,active
DEFB4A,3,-0.57,-1.04,3.11,inactive
ROS1,1,-1.54,-7.88,3.01,inactive
ROS1,2,1.41,12.9,9.76,inactive
ROS1,3,-1.09,-4.69,2.37,inactive
CABS1,1,-0.0674,2.49,5.14,inactive
CABS1,2,1.75,15.3,7.79,inactive
CABS1,3,0.199,4.36,4.31,inactive
TNMD,1,2.67,21.8,14.1,inactive
TNMD,2,-0.397,0.171,4.69,inactive
TNMD,3,-1.31,-6.22,1.06,inactive
NKX3-2,1,0.0404,3.25,6.83,inactive
NKX3-2,2,0.12,3.81,5.48,inactive
NKX3-2,3,1.51,13.6,8.86,inactive
FLYWCH1,1,-1.01,-4.1,2.74,inactive
FLYWCH1,2,-0.85,-3.01,2.56,inactive
FLYWCH1,3,-0.355,0.467,2.55,inactive
SF3B5,1,1.31,12.2,6.09,inactive
SF3B5,2,-0.525,-0.726,3.87,inactive
SF3B5,3,0.31,5.15,4.98,inactive
GNL3,1,1.08,10.6,7.45,inactive
GNL3,2,0.42,5.92,8.85,inactive
GNL3,3,0.565,6.94,6.49,inactive
RAB10,1,0.0641,3.42,4.95,inactive
RAB10,2,1.01,10.1,10.1,inactive
RAB10,3,4.4,33.9,19.9,inactive
ZNF484,1,1.26,11.8,6.96,inactive
ZNF484,2,0.519,6.62,8.9,inactive
ZNF484,3,1.01,10,6.79,inactive
PSMB8,1,1.88,16.2,11.2,inactive
PSMB8,2,2.42,20,12,inactive
PSMB8,3,-0.423,-0.011,3.91,inactive
OR2T4,1,-0.826,-2.84,1.55,inactive
OR2T4,2,-0.131,2.05,4.95,inactive
OR2T4,3,0.815,8.7,5.86,inactive

Part of the list above, showing only “raw share of cells in G2 (%)”.
KCTD5 #3: 4.8
FNBP1 #1: 9.07
FNBP1 #2: 5.53
